Data reported in publication PMC5601996.
Results are given in words; binding and its absence hold for the method and conditions named. In cells and extracts the contact can be indirect. Some results given as binding are weak or reduced against the parent protein; the word gives no strength. One block for each substance: values may come before it.

Amino acid sequences for entries named in this document (tags omitted).
UniProt O00327: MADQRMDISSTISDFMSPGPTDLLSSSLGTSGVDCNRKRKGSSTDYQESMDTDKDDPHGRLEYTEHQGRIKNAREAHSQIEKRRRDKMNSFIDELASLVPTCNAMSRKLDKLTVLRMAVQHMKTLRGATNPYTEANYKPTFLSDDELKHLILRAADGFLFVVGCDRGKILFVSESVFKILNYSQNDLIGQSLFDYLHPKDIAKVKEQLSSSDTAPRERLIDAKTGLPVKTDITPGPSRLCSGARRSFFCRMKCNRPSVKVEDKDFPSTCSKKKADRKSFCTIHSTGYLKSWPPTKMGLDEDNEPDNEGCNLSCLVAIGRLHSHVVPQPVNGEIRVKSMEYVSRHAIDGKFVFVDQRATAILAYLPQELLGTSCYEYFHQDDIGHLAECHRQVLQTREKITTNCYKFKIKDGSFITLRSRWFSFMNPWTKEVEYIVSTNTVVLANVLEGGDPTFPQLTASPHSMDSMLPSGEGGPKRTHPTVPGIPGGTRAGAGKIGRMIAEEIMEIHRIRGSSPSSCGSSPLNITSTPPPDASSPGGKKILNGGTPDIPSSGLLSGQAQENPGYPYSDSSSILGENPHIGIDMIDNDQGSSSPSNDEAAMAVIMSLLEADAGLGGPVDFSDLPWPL
UniProt Q9H9Q2: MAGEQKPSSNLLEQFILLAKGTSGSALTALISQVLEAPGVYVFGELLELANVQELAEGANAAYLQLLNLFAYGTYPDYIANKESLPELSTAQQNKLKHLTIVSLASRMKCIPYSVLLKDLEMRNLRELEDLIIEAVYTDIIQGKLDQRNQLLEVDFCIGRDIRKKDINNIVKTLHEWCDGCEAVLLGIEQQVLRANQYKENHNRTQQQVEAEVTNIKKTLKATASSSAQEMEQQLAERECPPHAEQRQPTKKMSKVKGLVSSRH

Columns and labels:
[1] = biological target: FLAG epitope-tagged BMAL1 (UniProt O00327); assay: co-IP; HEK293T transfected with FLAG-tagged clock proteins; nuclear extracts (1000 ug) with anti-FLAG M2 or anti-COPS7B antibody 90 min at 4°C, protein A agarose 1 hr; one wash 50 mM Tris, 500 mM NaCl, 1% NP-40, two washes 50 mM Tris, 120 mM NaCl, 0.5% NP-40; Western blot probed with the opposite antibody
[2] = biological target: FLAG epitope-tagged BMAL1 (in U2OS cells) (UniProt O00327); assay: co-IP; U2OS cells (rhythmic) transfected with FLAG-tagged clock proteins, synchronized by dexamethasone; nuclear extracts (1000 ug) with antibody 90 min at 4°C, protein A agarose; one high-salt wash (500 mM NaCl), two low-salt washes (120 mM NaCl); Western blot
[3] = biological target: COPS7B, a subunit of the COP9 signalosome (human (endogenous in HEK293T)) (UniProt Q9H9Q2); assay: co-IP; HEK293T transfected with FLAG-tagged clock proteins; nuclear extracts (1000 ug) with anti-FLAG M2 or anti-COPS7B antibody 90 min at 4°C, protein A agarose 1 hr; one wash 50 mM Tris, 500 mM NaCl, 1% NP-40, two washes 50 mM Tris, 120 mM NaCl, 0.5% NP-40; Western blot probed with the opposite antibody

- binding [1]: binds
Substance: COPS7B, a subunit of the COP9 signalosome (from UniProt Q9H9Q2 1-264)

- binding [2]: binds
Substance: COPS7B, a subunit of the COP9 signalosome (in U2OS cells) (from UniProt Q9H9Q2 1-264)

- binding [3]: binds
Substance: FLAG epitope-tagged BMAL1 (from UniProt O00327 1-626)
